Measured values from patent US20260183350A1, “ANTIBIOTIC-RESISTANT BACTERIA” (priority 2022, published 2026).

Experiments:
[1] = system: NDM-1 Enterobacter cloacae; assay: Individual metabolite inhibition assay; type: cell-based; settings: at average and high concentrations (Table 1); LB pH 6.5, 16 hours anaerobic
Protocol: (§1) New Delhi Metallo-β-lactamase 1 (NDM-1) Escherichia coli, NDM-1 Klebsiella pneumoniae, and NDM-1 Enterobacter cloacae were isolated from patients with intestinal CRE colonisation from the Imperial College Healthcare NHS Trust via rectal swab (REC ref. 19/LO/0112). The species were assigned by matrix assisted laser desorption ionization-time of flight (MALDI-TOF) mass spectrometry and later confirmed with 16S rRNA gene sequencing. CRE status was determined using X-pert Carba-R PCR detection (Cepheid, Sunnyvale, CA, USA), (Otter, J. A. et al. Detecting carbapenemase-producing Enterobacterales (CPE): an evaluation of an enhanced CPE infection control and screening programme in acute care. J Antimicrob Chemother 75, 2670-2676 (2020)).
(§2) Each metabolite was tested individually in an inhibition assay against each CRE isolate. Each metabolite was tested at three concentrations: the low, average, and high concentrations that were measured in healthy faeces (from Table 1). LB was supplemented with each metabolite (at the three different concentrations) and compared to a no metabolite control. […] Overnight cultures of each CRE isolate were inoculated at 10^3 CFU/ml. Cultures were incubated anaerobically for 16 hours at 37° C. Growth was measured at OD600 after 16 hours of incubation. […]

[2] = system: NDM-1 Klebsiella pneumoniae; assay: Individual metabolite inhibition assay; type: cell-based; settings: at average and high concentrations (Table 1); LB pH 6.5, 16 hours anaerobic
Protocol: as §1, §2

CC(C)CC(=O)O [isovalerate]
E. cloacae growth (OD600) with individual metabolite [1]: inhibited | K. pneumoniae growth (OD600) with individual metabolite [2]: inhibited
